Test results taken from patent publication US20210002712A1, “PHOSPHATIDIC ACID SENSOR” (NATIONAL UNIVERSITY CORPORATION CHIBA UNIVERSITY, priority 2019, published 2021).
At least one read-out could not be matched to a standard name with certainty.

Tests used:
Assay type in all cases: cell-based
EGFP-DGKβ-KD = assay: Colocalization with kinase-dead EGFP-DGKβ-KD in COS-7 cells; conditions: kinase-dead mutant
Myr-AcGFP-DGKζ-KD = assay: Colocalization with kinase-dead Myr-AcGFP-DGKζ-KD in COS-7 cells; conditions: trans Golgi network and plasma membrane
DGKγ-KD = assay: Colocalization with kinase-dead DGKγ-KD in PMA-stimulated COS-7 cells; conditions: after PMA stimulation

α-Syn-N: N-terminal region of mouse α-synuclein (Met1-Lys60), SEQ ID NO: 2; used 6×His-SUMO-, GST- or DsRed monomer-tagged
colocalization with EGFP-DGKβ-KD (EGFP-DGKβ-KD): not colocalized
colocalization with Myr-AcGFP-DGKζ-KD (Myr-AcGFP-DGKζ-KD): did not show such overlap
colocalization with DGKγ-KD (DGKγ-KD): not codistributed
